According to paper PMC6461989:

Target: T1, HAI-2 expressed in A549 cells from a HAI-2.tet.aOn gene upon doxycycline induction (UniProt O43291)
T1 sequence: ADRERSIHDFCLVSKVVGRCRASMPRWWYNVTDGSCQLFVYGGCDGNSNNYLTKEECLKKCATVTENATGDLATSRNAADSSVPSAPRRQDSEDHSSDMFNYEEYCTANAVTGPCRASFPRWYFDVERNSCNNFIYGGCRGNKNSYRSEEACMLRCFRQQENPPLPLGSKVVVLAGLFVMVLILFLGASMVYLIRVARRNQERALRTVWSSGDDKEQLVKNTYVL
Experiment: co-IP; A549 cells with HAI-2.tet.aOn gene, doxycycline-induced; purified human plasminogen or plasmin; HAI-2 pulled down by anti-c-Myc mAb (9E10); immunoblot with anti-PLG and anti-HAI-2 pAbs; only the binder purified

| Substance | binding |
| --- | --- |
| human active plasmin (enzyme) | binds |
| purified human plasminogen | binds |

These are yes or no findings as the source states them, for the method shown. Binding seen in cells or lysates may run through a third protein. A result given as binding can be weak or reduced; the word gives no strength.
